No constants are given. Whether binding was seen depends on the method and setting. Binding seen in cells or lysates may run through a third protein. A yes stands for co-enrichment or nearness to the bait. Other partners may have been found.
B1: MATR3 (protein, UniProt P43243 1-847)
chain: MSKSFQQSSLSRDSQGHGRDLSAAGIGLLAAATQSLSMPASLGRMNQGTARLASLMNLGMSSSLNQQGAHSALSSASTSSHNLQSIFNIGSRGPLPLSSQHRGDADQASNILASFGLSARDLDELSRYPEDKITPENLPQILLQLKRRRTEEGPTLSYGRDGRSATREPPYRVPRDDWEEKRHFRRDSFDDRGPSLNPVLDYDHGSRSQESGYYDRMDYEDDRLRDGERCRDDSFFGETSHNYHKFDSEYERMGRGPGPLQERSLFEKKRGAPPSSNIEDFHGLLPKGYPHLCSICDLPVHSNKEWSQHINGASHSRRCQLLLEIYPEWNPDNDTGHTMGDPFMLQQSTNPAPGILGPPPPSFHLGGPAVGPRGNLGAGNGNLQGPRHMQKGRVETSRVVHIMDFQRGKNLRYQLLQLVEPFGVISNHLILNKINEAFIEMATTEDAQAAVDYYTTTPALVFGKPVRVHLSQKYKRIKKPEGKPDQKFDQKQELGRVIHLSNLPHSGYSDSAVLKLAEPYGKIKNYILMRMKSQAFIEMETREDAMAMVDHCLKKALWFQGRCVKVDLSEKYKKLVLRIPNRGIDLLKKDKSRKRSYSPDGKESPSDKKSKTDGSQKTESSTEGKEQEEKSGEDGEKDTKDDQTEQEPNMLLESEDELLVDEEEAAALLESGSSVGDETDLANLGDVASDGKKEPSDKAVKKDGSASAAAKKKLKKVDKIEELDQENEAALENGIKNEENTEPGAESSENADDPNKDTSENADGQSDENKDDYTIPDEYRIGPYQPNVPVGIDYVIPKTGFYCKLCSLFYTNEEVAKNTHCSSLPHYQKLKKFLNKLAEERRQKKET

Protein sequences, listed by entry. Tags and fused reporters are not part of them.
UniProt P35637: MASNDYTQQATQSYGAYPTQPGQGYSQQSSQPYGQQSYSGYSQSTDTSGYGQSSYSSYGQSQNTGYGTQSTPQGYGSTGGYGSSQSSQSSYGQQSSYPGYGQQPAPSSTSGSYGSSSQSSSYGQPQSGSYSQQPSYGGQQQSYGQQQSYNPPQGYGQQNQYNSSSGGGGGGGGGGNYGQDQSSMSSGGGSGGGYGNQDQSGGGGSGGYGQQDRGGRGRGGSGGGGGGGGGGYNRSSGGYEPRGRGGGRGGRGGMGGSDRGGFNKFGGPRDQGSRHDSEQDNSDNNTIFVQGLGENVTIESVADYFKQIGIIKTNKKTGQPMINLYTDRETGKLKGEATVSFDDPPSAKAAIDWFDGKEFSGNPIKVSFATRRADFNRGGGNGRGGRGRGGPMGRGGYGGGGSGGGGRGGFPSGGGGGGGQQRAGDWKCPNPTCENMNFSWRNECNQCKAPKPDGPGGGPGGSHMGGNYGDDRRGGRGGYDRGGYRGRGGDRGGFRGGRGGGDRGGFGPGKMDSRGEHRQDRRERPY
UniProt Q12905: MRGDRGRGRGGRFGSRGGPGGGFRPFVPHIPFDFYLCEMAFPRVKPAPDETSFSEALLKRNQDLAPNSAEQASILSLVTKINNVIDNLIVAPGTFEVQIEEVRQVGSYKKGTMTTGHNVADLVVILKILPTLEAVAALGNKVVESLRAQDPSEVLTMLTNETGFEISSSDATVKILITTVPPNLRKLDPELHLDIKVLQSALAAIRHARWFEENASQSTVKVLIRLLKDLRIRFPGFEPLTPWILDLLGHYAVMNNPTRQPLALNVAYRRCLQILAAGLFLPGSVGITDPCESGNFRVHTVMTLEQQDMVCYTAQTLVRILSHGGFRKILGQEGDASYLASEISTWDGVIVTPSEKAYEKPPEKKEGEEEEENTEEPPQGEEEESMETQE
UniProt P13010: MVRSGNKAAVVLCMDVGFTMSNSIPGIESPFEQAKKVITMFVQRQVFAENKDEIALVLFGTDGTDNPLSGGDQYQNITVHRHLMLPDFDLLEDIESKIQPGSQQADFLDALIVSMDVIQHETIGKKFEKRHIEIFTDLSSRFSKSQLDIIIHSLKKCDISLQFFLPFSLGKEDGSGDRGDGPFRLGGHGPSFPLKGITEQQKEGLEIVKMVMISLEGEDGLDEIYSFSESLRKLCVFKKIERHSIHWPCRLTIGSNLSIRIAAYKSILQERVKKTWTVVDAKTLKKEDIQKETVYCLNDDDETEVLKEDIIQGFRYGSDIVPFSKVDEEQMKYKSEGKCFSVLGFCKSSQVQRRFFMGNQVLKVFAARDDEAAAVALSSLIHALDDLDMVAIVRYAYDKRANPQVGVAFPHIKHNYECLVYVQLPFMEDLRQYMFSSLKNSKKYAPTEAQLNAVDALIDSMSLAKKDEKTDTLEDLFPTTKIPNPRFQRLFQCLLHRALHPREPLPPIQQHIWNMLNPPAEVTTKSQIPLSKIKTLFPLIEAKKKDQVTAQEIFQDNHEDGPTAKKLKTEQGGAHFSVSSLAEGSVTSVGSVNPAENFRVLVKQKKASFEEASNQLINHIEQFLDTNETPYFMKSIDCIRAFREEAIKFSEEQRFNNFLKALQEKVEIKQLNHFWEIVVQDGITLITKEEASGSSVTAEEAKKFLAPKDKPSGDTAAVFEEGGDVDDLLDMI

Target: Flag-tagged FUS (Fused-in-sarcoma) (UniProt P35637)
Assay: affinity purification with mass spectrometry

| Molecule | binding |
| --- | --- |
| ILF2 (from UniProt Q12905 1-390) | binds |
| XRCC5/KU80 (from UniProt P13010 1-732) | binds |
| B1 | binds |
